According to PubChem BioAssay AID504467 (National Center for Advancing Translational Sciences (NCATS), 2011):
In all, about 330,000 compounds went through this assay and about 7,700 (2.3%) were called active. This list was built around the results that the source calls inconclusive (neither active nor inactive); the mix of calls is not that of the screen. Calls come from the whole dose curve; as a rule, active = well fitted inhibition curve with a large enough effect; inconclusive = small, poorly fitted or top-dose-only effect, or effect the other way; inactive = flat fitted curve, though single readings scatter. Potencies beside an inconclusive call are fits to weak or partial responses and may not hold up.

test: qHTS screen for small molecules that inhibit ELG1-dependent DNA repair in human embryonic kidney (HEK293T) cells expressing luciferase-tagged ELG1; conditions: HEK293T ELG1-luciferase reporter, luminescence, 16 h, DNA damage induced by 5-fluorouridine; series mostly up to 46.1 µM; note: nearly all actives have a fitted effect of over 55% in size
Summary of the method: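 Reporter activity after DNA damage by 5-fluorouridine is monitored. Compound-treated cells incubate 16 hr at 37 °C, then ONE-Glo is added for 30 min before luminescence reading.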
Potency is the fitted concentration of half-maximal effect.

Compound	Potency
COc1cc(/C=C(\CCC(=O)O)c2nc3ccccc3s2)ccc1OCC(=O)Nc1c(Cl)cccc1Cl	inconclusive: 18.3 µM [inhibitor, single point]
CC(C)C[C@@H](NC(=O)C1CCC(CNC(=O)[C@@H]2CCCN2C(=O)OC(C)(C)C)CC1)C(=O)O (some centres undefined)	inactive
CCN(CC)S(=O)(=O)c1ccc(N2CCCCC2)c(C(=O)Nc2ccccc2N2CCOCC2)c1	inactive
CC(Cc1cccs1)NC(=O)Nc1ccccc1 (centres undefined)	inconclusive: 15.8 µM [activator, single point]
O/N=C1\CCCc2ccc(Cl)cc21	inactive
CCS(=O)(=O)N1Cc2ccccc2CC1C(=O)Nc1ccc(C)cc1 (centres undefined)	inconclusive: 23.1 µM [activator, single point]
CCNC(=O)COC(=O)c1ccc(-c2nc3ccccc3s2)s1	inconclusive: 16.4 µM [activator, partial curve]
O=C(OCC(=O)N1N=C(c2ccc(Cl)cc2)CC1c1ccco1)c1cccnc1 (centres undefined)	inconclusive: 25.9 µM [activator, single point]
O=C(Nc1ccccc1)c1cc(-c2ccccc2Cl)no1	inconclusive: 20.6 µM [activator, partial curve]
COc1ccc(OC)c(CNS(=O)(=O)c2c(C)nc3scc(C)n3c2=O)c1	inactive
CCN(CC(=O)Nc1cc(Cl)ccc1C)C(=O)c1ccc(N2CCCC2=O)cc1	inconclusive: 20 µM [activator, single point]
COc1ccc(-c2csc3ncnc(N4CCN(c5ccc(OC)cc5)CC4)c23)cc1	inconclusive: 3.26 µM [inhibitor, partial curve, poor fit]
CC(Cl)C(=O)c1ccc2c(c1)CCN2C(=O)C1CC1 (centres undefined)	inconclusive: 20.6 µM [activator, partial curve]
CCOCCCn1c(=S)[nH]c2cc(C(=O)NCc3ccc(F)cc3)ccc2c1=O	inactive
CC(=O)NC12CC3CC(C1)CC(C(=O)NCc1ccc(C)cc1)(C3)C2	inactive
CN(c1ccc(C(=O)NCCSCc2ccco2)cc1)S(C)(=O)=O	inconclusive: 6.51 µM [activator, partial curve, poor fit]
COc1ccc(/C=N/NC(=O)CN2CCSCC2)c(OC)c1	inactive
COc1cc2c(cc1NC(=O)CC1SC(N3CCCC3)=NC1=O)oc1ccccc12 (centres undefined)	inconclusive: 23.1 µM [inhibitor, single point]
Cc1cccc(C(=O)N(Cc2nc3ccccc3c(=O)[nH]2)C2CCCC2)c1	inconclusive: 20.6 µM [inhibitor, single point]
CCCSc1ccc(C(=O)Nc2ccc(F)cc2F)cn1	inconclusive: 16.4 µM [activator, partial curve]
O=c1cc(CO)oc(CN2CCN(c3cccc(C(F)(F)F)c3)CC2)c1O	inconclusive: 23.1 µM [inhibitor, partial curve, poor fit]
Cc1ccc(N2C(=O)C3CCCN3C2=S)cc1Cl (centres undefined)	inactive
Cc1ccc(C(=O)OCC(=O)NC(C)c2ccccc2)cc1C (centres undefined)	inactive
CN(c1cccc(NC(=O)COc2ccc(Cl)cc2Cl)c1)S(C)(=O)=O	inconclusive: 5.8 µM [activator, single point]
Cc1ccc(-n2ncc3c(SCC(=O)Nc4cc(C)on4)ncnc32)c(C)c1	inconclusive: 2.59 µM [inhibitor, partial curve, poor fit]

Grouped by structure, the compounds so far with four or more nitrogen atoms (three)
Compound	Potency
CCN(CC)S(=O)(=O)c1ccc(N2CCCCC2)c(C(=O)Nc2ccccc2N2CCOCC2)c1	inactive
COc1ccc(-c2csc3ncnc(N4CCN(c5ccc(OC)cc5)CC4)c23)cc1	inconclusive: 3.26 µM [inhibitor, partial curve, poor fit]
Cc1ccc(-n2ncc3c(SCC(=O)Nc4cc(C)on4)ncnc32)c(C)c1	inconclusive: 2.59 µM [inhibitor, partial curve, poor fit]

Another view of 2 compounds above:
Compound,Potency
Cc1ccc(N2C(=O)C3CCCN3C2=S)cc1Cl (centres undefined),inactive
Cc1ccc(C(=O)OCC(=O)NC(C)c2ccccc2)cc1C (centres undefined),inactive

Later entries

Compound	Potency
CSCCC(NC(=O)c1cccc([N+](=O)[O-])c1)C(=O)OCC(=O)N1CCCC1=O (centres undefined)	inactive
CC1=C(C)CC(C(=O)Nc2nccs2)C(C(=O)O)C1 (centres undefined)	inactive
C=C1CCC[C@]2(C)C[C@H]3OC(=O)C(CN(C)CC(OC)OC)[C@H]3CC12 (some centres undefined)	inactive
CCOC(=O)c1ccc(Nc2cnc3ccccc3n2)cc1	inconclusive: 16.4 µM [activator, partial curve]
O=C(NCC1CCCO1)c1ccc2nc(N3CCCCC3)sc2c1 (centres undefined)	inconclusive: 7.31 µM [activator, partial curve]
COc1ccc([C@H]2CC(=O)C=C(c3cccc(Cl)c3)C2)cc1	inconclusive: 23.1 µM [inhibitor, partial curve, poor fit]
CCOCCCNC(=O)c1c(-c2ccccc2)noc1C	inactive
Oc1ccc(Br)cc1Cn1nnc2ccccc21	inactive
O=C(CSc1nc2c(c(=O)[nH]1)CN(Cc1ccc(F)cc1)CC2)Nc1ccc(F)cc1	inactive
COC(=O)c1c(NC(=O)C2CC2)sc(C(=O)Nc2ccccc2)c1C	inconclusive: 3.66 µM [activator, single point]
Cc1cccc(C(=O)N2CCN(c3ccc([N+](=O)[O-])c(NCc4ccco4)c3)CC2)c1	inconclusive: 35.5 µM [inhibitor, single point]
Oc1ccccc1C=Nc1ccccc1-c1nc2ccccc2[nH]1	inconclusive: 13 µM [activator, partial curve]
CCOC(=O)[C@@H]1[C@H]2COc3ccccc3[C@@H]2N2C(=O)N(c3cccc(C)c3)C(=O)[C@]12C	inconclusive: 1.3 µM [activator, full curve]
Cn1c(NNC(=O)c2cccc3ccccc23)cc(=O)n(C)c1=O	inactive
Brc1ccc2c(c1)C(C1=NCCN1)c1ccccc1CS2 (centres undefined)	inconclusive: 1.03 µM [inhibitor, full curve]
O=c1c2c3c(sc2nc2n1CCCCC2)C(O)CCC3 (centres undefined)	inconclusive: 18.3 µM [activator, partial curve]
O=C(O)CC(NC(=O)COc1ccccc1)c1cccc([N+](=O)[O-])c1 (centres undefined)	inactive
COc1ccc(OC)c(S(=O)(=O)N2CCC(C(=O)NC3CCCCCC3)CC2)c1	inactive
NC(=O)N/N=C/c1cccc(OCc2ccc(F)cc2)c1	inconclusive: 16.4 µM [activator, partial curve]
O=S(=O)(Nc1ccc(Br)cc1)c1cccc2nonc12	inactive
O=C(Nc1nccs1)c1ccc2nccnc2c1	inconclusive: 17.8 µM [activator, partial curve, poor fit]
N/C(=N\NC(=O)c1sccc1OCc1ccc(Cl)cc1Cl)c1ccccn1	inconclusive: 4.11 µM [inhibitor, partial curve]
CC(C)CN(CCCNC(=O)CN1C(=O)COc2ccc(S(=O)(=O)N3CCC(C)CC3)cc21)CC(C)C	inconclusive: 14.6 µM [activator, partial curve, poor fit]
Cc1ccc(NC(=O)CN2CCN(Cc3ccccc3)CC2)c(Br)c1	active: 20.6 µM
CCOc1ccccc1-n1c(SCC(=O)NC(C)(C)C)nnc1-c1ccoc1C	inconclusive: 25.9 µM [inhibitor, partial curve, poor fit]

Compound	Potency
Cc1ccc(NS(=O)(=O)c2cccc(C(=O)N3CCCCCC3)c2)cc1	inactive
C/C(=N/NC(=O)c1ccc2nc[nH]c2c1)c1cccs1	inconclusive: 9.2 µM [activator, partial curve]
COc1cccc(C(=O)OCC(=O)Nc2cc(C)c(C)cc2[N+](=O)[O-])c1	inactive
COc1cccc(N2C(=O)CC(N3CCN(c4ccc([N+](=O)[O-])cc4)CC3)C2=O)c1 (centres undefined)	inactive
COc1ccc(-c2cc(CS(=O)(=O)c3ccccc3)on2)cc1	inconclusive: 14.6 µM [activator, partial curve]
Cc1ccc(/C=N/NC(=O)c2cccc(NC(=O)c3ccccc3C)c2)o1	inactive
COc1ccc(C(=O)CSc2nn3c(=O)c(C(C)(C)C)nnc3s2)cc1	inconclusive: 29.1 µM [activator, single point]
COc1cccc(CNS(=O)(=O)c2c(C)[nH]c(C)c2C(=O)N2CCCC2)c1	inactive
O=C(N/N=C/c1cccc([N+](=O)[O-])c1)c1nc2ccccc2c(=O)[nH]1	inconclusive: 13 µM [activator, partial curve]
c1ccc(Nc2nc(CSc3ncn[nH]3)cs2)cc1	inconclusive: 6.51 µM [activator, partial curve]
O=C(CCN1C(=O)/C(=C/c2ccccc2Cl)SC1=S)NC1CCS(=O)(=O)C1 (centres undefined)	inconclusive: 23.1 µM [activator, partial curve, poor fit]
COc1ccc(CC2(CO)CCN(C(C)Cc3ccc(Cl)cc3)CC2)cc1 (centres undefined)	inactive
COc1ccc(Oc2c(C=O)c3ccccc3n2C)cc1	inactive
O=[N+]([O-])c1cccc(-c2noc(-c3cccs3)n2)c1	inconclusive: 16.4 µM [activator, partial curve]
COc1ccc(COC(=O)N/N=C(\C)CC(=O)NCc2ccc(Cl)cc2)cc1	inactive
Fc1ccc2c(c1)c1n[nH]c(=S)nc1n2CCc1ccccc1	inactive
Cc1nonc1C(=O)N1CCCC(N2CCN(c3ccc(F)cc3)CC2)C1 (centres undefined)	inconclusive: 5.17 µM [inhibitor, partial curve]
CC(=O)Nc1nc2nc(-c3ccccc3)cc(-c3ccccc3)n2n1	inactive
O=C(CN1CCC(NC(=O)Nc2ccc(F)cc2)CC1)Nc1ccccc1[N+](=O)[O-]	active: 18.3 µM
CCCc1cc(NC(=O)CCl)n(-c2ccccc2)n1	inconclusive: 32.6 µM [inhibitor, single point]
CN1C(=O)/C(=C/c2ccc(OCc3ccc(F)cc3)cc2)N(C)C1=S	inactive
Cc1cc2cc(C)c(NCCNC(=O)c3ccccc3Cl)nc2cc1C	inconclusive: 29.1 µM [inhibitor, single point]
C/C(O)=C(\C#N)c1nnc2n1CCCCC2	inactive
Cn1nnnc1SCc1nnc(-c2ccccc2Br)o1	inconclusive: 29.1 µM [activator, single point]
